Measured values: PubChem BioAssay AID493014 (National Center for Advancing Translational Sciences (NCATS), 2011)
This is one part of the list. These are further read-outs of the screen, such as a control signal, another cell line or another target. No call is given for them. Compounds called inactive in the main read-out are mostly missing here. Words in brackets tell the shape of the fitted curve; partial curves, single points and poor fits give uncertain potencies.

Experiment: qHTS Assay to Find Inhibitors of Chronic Active B-Cell Receptor Signaling
Conditions: ABC-DLBCL IkBa-CBG/CBR reporter, luminescence ratio (green luciferase fused to IkBa over red control in TMD8 lymphoma cells), 4 h
Procedure, shortened: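 Concentration-response series (up to 46 uM) were applied to TMD8 dual-reporter cells for 4 h at 37C with doxycycline. Green/red ratio, after filter-overlap correction, defined %Activity; red signal alone was normalised to basal cells and zero luminescence.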

[1] = measured here: CBR red luminescence, cell number
[2] = measured here: IkBa-CBG green luminescence

SMILES	AC50 [1]	AC50 [2]
Cc1cccc(C)c1OCC(=O)Nn1c(COc2ccccc2)nc2ccccc2c1=O	5.8 µM [falling, partial curve]	–
O=C(Nc1ccncc1)c1cn(-c2ccccc2)nc1-c1cccs1	10.3 µM [falling, single point]	16.4 µM [falling, partial curve, poor fit]
CCOc1ccccc1NC(=O)NCCc1c[nH]c2ccccc12	3.55 µM [falling, partial curve, poor fit]	–
COc1ccc(NC(=O)NCCN2CCCCC2)cc1	3.98 µM [rising, single point]	–
N#CC(C#N)C(c1ccsc1)c1c(-c2ccccc2)[nH][nH]c1=O (centres undefined)	29.1 µM [falling, single point]	–
Cc1ccc(-n2cccc2/C=C2\C(=N)N3N=C(c4ccco4)SC3=NC2=O)cc1	2.82 µM [falling, full curve]	–
COc1ccc(CCNC(=O)C(=O)NCC(c2cccs2)S(=O)(=O)c2ccc(C)cc2)cc1 (centres undefined)	0.1 µM [rising, full curve, poor fit]	–
O=C(CNC(=O)c1ccc(Cl)c([N+](=O)[O-])c1)OC1CCCCC1=O (centres undefined)	29.1 µM [falling, single point]	–
CN(C)C=Nc1nc2ccccc2nc1N1CCCC1	20 µM [falling, single point]	–
Cc1ccc2nc(NS(=O)(=O)c3cn(C)nc3C)sc2c1	3.16 µM [rising, single point]	5.62 µM [falling, single point]
COc1ccc(C(=O)Nc2cccc(C)c2)cc1	4.47 µM [falling, partial curve]	–
C=CCN(c1nc(C)c(Br)c(OC)n1)S(=O)(=O)c1ccc(C)cc1	35.5 µM [rising, single point]	–
COc1cc2c(cc1NC(=S)Nc1cccc3ccccc13)oc1ccccc12	0.651 µM [falling, full curve, poor fit]	–
O=C(Nc1ccc(F)cc1)N1CCN(c2ncccn2)CC1	11.2 µM [falling, single point]	–
O=C(CC1C(=O)N(c2ccc(Cl)cc2)C(=S)N1CCc1ccncc1)Nc1ccc(F)cc1 (centres undefined)	20 µM [falling, partial curve, poor fit]	–
CC(C)(C(N)=O)N1CCN(c2ncc(C(F)(F)F)cc2Cl)CC1	0.184 µM [falling, full curve, poor fit]	–
CC1=CCC(C(=O)O)C(C(=O)Nc2ccc(-c3nc4ccc(C)cc4s3)cc2)C1 (centres undefined)	35.5 µM [falling, single point]	–
CC1CCc2nn(CC(=O)N3CCc4ccccc43)cc2C1 (centres undefined)	6.51 µM [falling, single point]	–
Brc1ccc(OCCOCCN2CCOCC2)cc1	11.6 µM [rising, partial curve, poor fit]	–
O=C(CSc1nnc(SCc2ccc(F)cc2)s1)Nc1ccc(C(=O)O)cc1	8.91 µM [falling, partial curve, poor fit]	–
CCc1c(C)[nH]c(C(=O)OCc2ccccc2)c1C	7.94 µM [rising, partial curve]	–
Cc1ccc(-c2nc3cnccn3c2Nc2ccc3c(c2)OCO3)cc1	35.5 µM [falling, single point]	–

SMILES	AC50 [1]	AC50 [2]
COc1ccc(C2NC(=O)CCC2[N+](=O)[O-])cc1OC (centres undefined)	15.8 µM [falling, partial curve, poor fit]	–
CC1CN(c2cc(-c3ccccc3)c3ccccc3n2)CC(C)O1 (centres undefined)	20.6 µM [rising, partial curve, poor fit]	–
Cc1ccn2c(NC(=O)c3ccccc3)c(-c3ccccc3)nc2c1	0.112 µM [rising, full curve, poor fit]	–
Cc1cccc(CS(=O)(=O)c2ncc(Cl)c(C(=O)Nc3c(C)cccc3C)n2)c1	20 µM [falling, single point]	–
COc1cc([N+](=O)[O-])ccc1NC(=O)CSc1nccn1C	12.6 µM [falling, single point]	17.8 µM [rising, partial curve, poor fit]
CCCCC(CCC(=O)Nc1cccc([N+](=O)[O-])c1)C(=O)O (centres undefined)	35.5 µM [rising, single point]	–
CC(CC(=O)Nc1ccc2c(c1)OCCO2)c1ccccc1 (centres undefined)	2.91 µM [rising, full curve, poor fit]	–
CCOC(=O)Cc1csc(NC(=O)CSc2nnc(C3CC3)n2C)n1	6.51 µM [falling, partial curve]	–
NC(=O)c1c(NC(=O)CSc2nnc(-c3ccco3)n2-c2ccccc2)sc2c1CCC2	17.8 µM [falling, partial curve, poor fit]	–
Cc1cccc2cc(CN(CC3CCCO3)S(=O)(=O)c3ccccc3)c(=O)[nH]c12 (centres undefined)	3.98 µM [falling, full curve]	–
CCOc1ccccc1N1CCN(c2nc(N)c(C#N)c(CC#N)c2C#N)CC1	0.651 µM [falling, partial curve, poor fit]	–
Cc1ccc(S(=O)(=O)NC(=O)Nc2cc(C)no2)cc1	6.31 µM [rising, partial curve, poor fit]	–
COc1ccc(C(=O)OCc2nc(N)nc(Nc3ccccc3C)n2)cc1OC	1.41 µM [rising, partial curve, poor fit]	5.62 µM [falling, partial curve, poor fit]
COC(=O)CN(C#N)c1nc(SC)nc(N(C)C)n1	0.146 µM [falling, full curve, poor fit]	–
Cc1ccc2c(c1)c1c(n2CC(O)CNC(C)(C)C)CCCC1 (centres undefined)	11.2 µM [falling, partial curve, poor fit]	–
O=C(NNC(=O)c1ccncc1)c1ccccc1	35.5 µM [falling, single point]	–
COc1ccc(CN2CCSCC2)c(OC)c1C	1 µM [rising, full curve, poor fit]	–
Cn1cccc1C(=O)NC1CCCCCC1	18.4 µM [falling, partial curve, poor fit]	–
Cc1c(Cl)cccc1NC(=S)NCCC(c1ccccc1)c1ccccc1	32.6 µM [falling, partial curve, poor fit]	–
O=C(c1ccccc1)c1sc(N2CCCCCC2)nc1-c1ccccc1	12.6 µM [rising, partial curve, poor fit]	–
Cc1nnc(N/N=C/c2ccc(-c3ccc(Br)cc3)o2)n1N	3.55 µM [rising, partial curve, poor fit]	–
COc1ccc(C2(C(=O)Nc3ccc(C)cc3)CCOCC2)cc1	0.794 µM [rising, full curve, poor fit]	–

SMILES	AC50 [1]	AC50 [2]
Cc1nnc(SCC(=O)Nc2nccs2)n(N)c1=O	7.94 µM [falling, partial curve]	–
CC(C)C(=O)N1CCN(c2nc(-c3ccc(Cl)cc3)cs2)CC1	3.55 µM [falling, partial curve]	–
COc1ccc(Cl)cc1C(=O)Nc1nc2ccc(S(C)(=O)=O)cc2s1	3.98 µM [rising, full curve, poor fit]	–
Cc1ccnc(NC(=O)c2ccc(OCC3CCCO3)cc2)c1 (centres undefined)	14.6 µM [falling, partial curve]	–
CCC(C(=O)OC)n1cnc2c(oc3ccccc32)c1=O (centres undefined)	20 µM [rising, partial curve, poor fit]	–
Cc1cnc(NC(=O)c2cc3ccccc3o2)s1	3.98 µM [falling, full curve]	–
O=C(CN1CC[n+]2c(-c3cccs3)csc21)c1ccc(Br)cc1	0.562 µM [rising, full curve, poor fit]	–
CCCCn1c(N)c(S(=O)(=O)c2ccc(C)cc2)c2nc3ccccc3nc21	20.6 µM [falling, partial curve]	25.9 µM [rising, partial curve, poor fit]
COc1cc(-c2ccccc2)nc(N)n1	2.59 µM [falling, partial curve, poor fit]	–
COc1ccccc1N(CC(=O)Nc1ccc2c(c1)OCO2)S(=O)(=O)c1ccccc1	1.78 µM [falling, partial curve]	–
CN(C)S(=O)(=O)c1ccc(Cl)c(C(=O)OCC(=O)NC(=O)c2cccn2C)c1	5.8 µM [falling, partial curve]	–
COc1ccc(CNC(=O)C2CCN(S(=O)(=O)c3ccc4c(c3)CC(C)N4C(=O)C3CC3)CC2)cc1 (centres undefined)	6.31 µM [rising, partial curve, poor fit]	–
Cc1ccc(-n2ncc3c(=O)n(Cc4ccccn4)cnc32)cc1C	25.1 µM [falling, single point]	–
O=c1c(/C=N/OCc2ccc(Cl)cc2Cl)c[nH]n1-c1cccc(Cl)n1	35.5 µM [falling, single point]	–
CCCOc1ccc(OCCN2CCCC(C)C2)cc1 (centres undefined)	9.2 µM [rising, partial curve]	–
COc1ccc(-c2cc(C(=O)N3CCCC3)no2)cc1	4.47 µM [falling, partial curve]	–
Cc1cccc(N2CCN(C(=O)CC(NC(=O)c3ccccc3)c3ccccc3)CC2C)c1 (centres undefined)	23.1 µM [rising, single point]	–
CCN(CC)c1cc(Oc2ccccc2)ncn1	18.4 µM [rising, single point]	–
O=C(c1ccco1)N1CCN(c2ccc([N+](=O)[O-])cc2F)CC1	35.5 µM [rising, single point]	–
Cc1cc(NC(=O)c2cc([N+](=O)[O-])ccc2Cl)no1	17.8 µM [falling, single point]	–
